Structures can show the parent of a compound that is named as a salt. ± gives the uncertainty stated by the source. This is one part of the list. Plates or batches differ in their baseline, so values are only roughly comparable.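 A heat-shock-induced fluorescent stripe was set in larval rod outer segments at 6 dpf. Shedding distance ran from stripe to outer segment tip, measured by confocal stacks in about three fish per compound. Controls: 0.2% DMSO vehicle. Flagged compounds showed ≥20% change from same-week control, p < 0.001 (Dunnett test on mixed-effects models).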
Columns and labels:
[1] = tested on: Danio rerio larva rod photoreceptor outer segment; assay: rod outer segment growth distance Dg, difference from same-week DMSO control mean; higher = more outer segment growth; details: 20 µM; treatment time: 4 days (6-10 dpf)
[2] = tested on: Danio rerio larva rod photoreceptor outer segment; assay: rod outer segment shedding distance Ds, difference from same-week DMSO control mean; higher = less outer segment shedding; details: 20 µM; treatment time: 4 days (6-10 dpf)

Row | Compound | rod outer segment growth distance Dg [1] | rod outer segment shedding distance Ds [2]
1 | CC(=O)Nc1ccc(OC[C@](C)(O)C(=O)Nc2ccc([N+](=O)[O-])c(C(F)(F)F)c2)cc1 [Andarine] | -1.82 ± 0.15 um | -1.63 ± 0.2 um
2 | O=C(O)c1nn(Cc2ccc(Cl)cc2Cl)c2ccccc12 [Lonidamine] | -0.5 ± 0.22 um | -0.58 ± 0.15 um
3 | CCCN1CCO[C@@H]2c3cc(O)ccc3OC[C@H]21 | -0.22 ± 0.27 um | -0.78 ± 0.3 um
4 | COC1=C[C@@H]2[C@@H]3Cc4ccc(OC)c(O)c4[C@]2(CCN3C)CC1=O [Sinomenine] | 0.22 ± 0.24 um | 0.87 ± 0.27 um
5 | C=C[C@H]1CN2CC[C@H]1C[C@H]2[C@H](O)c1ccnc2ccccc12 [Cinchonidine] | 0.53 ± 0.36 um | -0.01 ± 0.32 um
6 | O=C(O[C@H]1C[C@H]2CC[C@@H](C1)[N+]21CCCC1)C(O)(c1ccccc1)c1ccccc1 [Trospium chloride] | -0.6 ± 0.26 um | -0.35 ± 0.15 um
7 | CC(C)(C)[C@]1(O)CC2OC(=O)CC23C(=O)OC2OC(=O)[C@H](O)C231 (some centres not stated) [Bilobalide] | 0.39 ± 0.36 um | 0.27 ± 0.37 um
8 | CC(=O)O[C@H]1C[C@@H]2CC[C@@H]3[C@H](CC[C@@]4(C)[C@H]3C[C@H]([N+]3(C)CCCCC3)[C@@H]4OC(C)=O)[C@@]2(C)C[C@@H]1[N+]1(C)CCCCC1 [Pancuronium dibromide] | -0.09 ± 0.2 um | 0.2 ± 0.26 um
9 | CCC1(c2ccc(N)cc2)CCC(=O)NC1=O (configuration not stated) [Aminoglutethimide] | -0.46 ± 0.19 um | -0.14 ± 0.18 um
10 | O=c1[nH]c2ccccc2n1CCCN1CCC(n2c(=O)[nH]c3cc(Cl)ccc32)CC1 [Domperidone] | 0.59 ± 0.27 um | 0.25 ± 0.27 um
11 | CCN(C)C(=O)Oc1cccc([C@H](C)N(C)C)c1 [Rivastigmine Tartrate] | -0.92 ± 0.3 um | -0.18 ± 0.33 um

Part of the list above in order of molar mass, high to low:
Row | Compound | rod outer segment growth distance Dg [1] | rod outer segment shedding distance Ds [2]
4 | COC1=C[C@@H]2[C@@H]3Cc4ccc(OC)c(O)c4[C@]2(CCN3C)CC1=O [Sinomenine] | 0.22 ± 0.24 um | 0.87 ± 0.27 um
2 | O=C(O)c1nn(Cc2ccc(Cl)cc2Cl)c2ccccc12 [Lonidamine] | -0.5 ± 0.22 um | -0.58 ± 0.15 um
3 | CCCN1CCO[C@@H]2c3cc(O)ccc3OC[C@H]21 | -0.22 ± 0.27 um | -0.78 ± 0.3 um

Source: the supplement of paper PMC6143611
